Laboratory results from PMC9934649 (bioRxiv, 2023).

Tested on: 403 wild-type (WT) human kinases
Assay: Kinome-wide selectivity, scanMAX panel
Assay type: binding
Details: 1 µM

O=C(Nc1c[nH]nc1C(=O)NC1CCNCC1)c1cc(F)cc(F)c1 [Compound 2, 4-(3,5-difluorobenzamido)-N-(piperidin-4-yl)-1H-pyrazole-3-carboxamide]
Number of kinases bound with PoC <10: 4 kinases

O=C(NCC1CCOCC1)c1n[nH]cc1NC(=O)c1c(F)cccc1F [Compound 4, 4-(2,6-difluorobenzamido)-N-((tetrahydro-2H-pyran-4-yl)methyl)-1H-pyrazole-3-carboxamide]
Number of kinases bound with PoC <10: 5 kinases
